Tested on: BAF complex subunits and histone proteins
Experiment: Mass spectrometry proteomics of purified HA-SS18 WT and HA-SS18-SSX1 complexes (Tables 5A-5E)
Parameters: species or system human
[1] = HA-SS18SSX1_NE_peptides: protein co-purified with HA-SS18-SSX1 BAF complexes from soluble nuclear extract (NE), HEK-293T cells
[2] = HA-SS18WT_NE_peptides: proteins co-purified with HA-SS18 WT from nuclear extract (NE), HEK-293T
[3] = HA-SS18WT_CHR_peptides: protein identified in HA-SS18 WT BAF complex purification from nuclease-treated solubilized chromatin (CHR), HEK-293T

B1: MBOAT7 (protein, UniProt Q96N66 1-472, looked up)
Membrane-bound …: MSPEEWTYLVVLLISIPIGFLFKKAGPGLKRWGAAAVGLGLTLFTCGPHTLHSLVTILGTWALIQAQPCSCHALALAWTFSYLLFFRALSLLGLPTPTPFTNAVQLLLTLKLVSLASEVQDLHLAQRKEMASGFSKGPTLGLLPDVPSLMETLSYSYCYVGIMTGPFFRYRTYLDWLEQPFPGAVPSLRPLLRRAWPAPLFGLLFLLSSHLFPLEAVREDAFYARPLPARLFYMIPVFFAFRMRFYVAWIAAECGCIAAGFGAYPVAAKARAGGGPTLQCPPPSSPEKAASLEYDYETIRNIDCYSTDFCVRVRDGMRYWNMTVQWWLAQYIYKSAPARSYVLRSAWTMLLSAYWHGLHPGYYLSFLTIPLCLAAEGRLESALRGRLSPGGQKAWDWVHWFLKMRAYDYMCMGFVLLSLADTLRYWASIYFCIHFLALAALGLGLALGGGSPSRRKAASQPTSLAPEKLREE
Total (peptides) [1]: 2
Unique (peptides) [1]: 2

B2: EPB41L3 (protein, UniProt Q9Y2J2 1-1087, looked up)
Band 4.1-like protein 3: MTTESGSDSESKPDQEAEPQEAAGAQGRAGAPVPEPPKEEQQQALEQFAAAAAHSTPVRREVTDKEQEFAARAAKQLEYQQLEDDKLSQKSSSSKLSRSPLKIVKKPKSMQCKVILLDGSEYTCDVEKRSRGQVLFDKVCEHLNLLEKDYFGLTYRDAENQKNWLDPAKEIKKQVRSGAWHFSFNVKFYPPDPAQLSEDITRYYLCLQLRDDIVSGRLPCSFVTLALLGSYTVQSELGDYDPDECGSDYISEFRFAPNHTKELEDKVIELHKSHRGMTPAEAEMHFLENAKKLSMYGVDLHHAKDSEGVEIMLGVCASGLLIYRDRLRINRFAWPKVLKISYKRNNFYIKIRPGEFEQFESTIGFKLPNHRAAKRLWKVCVEHHTFFRLLLPEAPPKKFLTLGSKFRYSGRTQAQTRRASALIDRPAPYFERSSSKRYTMSRSLDGEVGTGQYATTKGISQTNLITTVTPEKKAEEERDEEEDKRRKGEEVTPISAIRHEGKSPGLGTDSCPLSPPSTHCAPTSPTELRRRCKENDCKLPGYEPSRAEHLPGEPALDSDGPGRPYLGDQDVAFSYRQQTGKGTTLFSFSLQLPESFPSLLDDDGYLSFPNLSETNLLPQSLQHYLPIRSPSLVPCFLFIFFFLLSASFSVPYALTLSFPLALCLCYLEPKAASLSASLDNDPSDSSEEETDSERTDTAADGETTATESDQEEDAELKAQELEKTQDDLMKHQTNISELKRTFLETSTDTAVTNEWEKRLSTSPVRLAARQEDAPMIEPLVPEETKQSSGEKLMDGSEIFSLLESARKPTEFIGGVTSTSQSWVQKMETKTESSGIETEPTVHHLPLSTEKVVQETVLVEERRVVHASGDASYSAGDSGDAAAQPAFTGIKGKEGSALTEGAKEEGGEEVAKAVLEQEETAAASRERQEEQSAAIHISETLEQKPHFESSTVKTETISFGSVSPGGVKLEISTKEVPVVHTETKTITYESSQVDPGTDLEPGVLMSAQTITSETTSTTTTTHITKTVKGGISETRIEKRIVITGDADIDHDQALAQAIKEAKEQHPDMSVTKVVVHKETEITPEDGED
Total (peptides) [1]: 2
Unique (peptides) [1]: 2
Total (peptides) [2]: 1
Unique (peptides) [2]: 1

B3: ATP5J2 (protein, UniProt P56134 2-94, looked up)
ATP synthase F(0) complex …: ASVGECPAPVPVKDKKLLEVKLGELPSWILMRDFSPSGIFGAFQRGYYRYYNKYINVKKGSISGITMVLACYVLFSYSFSYKHLKHERLRKYH
Total (peptides) [1]: 2
Unique (peptides) [1]: 2
Total (total peptides) [3]: 1
Unique (unique peptides) [3]: 1
Total (peptides) [2]: 2
Unique (peptides) [2]: 2

B4: ORC3 (protein, UniProt Q9UBD5 1-711, looked up)
Origin recognition complex …: MATSSMSKGCFVFKPNSKKRKISLPIEDYFNKGKNEPEDSKLRFETYQLIWQQMKSENERLQEELNKNLFDNLIEFLQKSHSGFQKNSRDLGGQIKLREIPTAALVLGVNVTDHDLTFGSLTEALQNNVTPYVVSLQAKDCPDMKHFLQKLISQLMDCCVDIKSKEEESVHVTQRKTHYSMDSLSSWYMTVTQKTDPKMLSKKRTTSSQWQSPPVVVILKDMESFATKVLQDFIIISSQHLHEFPLILIFGIATSPIIIHRLLPHAVSSLLCIELFQSLSCKEHLTTVLDKLLLTTQFPFKINEKVLQVLTNIFLYHDFSVQNFIKGLQLSLLEHFYSQPLSVLCCNLPEAKRRINFLSNNQCENIRRLPSFRRYVEKQASEKQVALLTNERYLKEETQLLLENLHVYHMNYFLVLRCLHKFTSSLPKYPLGRQIRELYCTCLEKNIWDSEEYASVLQLLRMLAKDELMTILEKCFKVFKSYCENHLGSTAKRIEEFLAQFQSLDETKEEEDASGSQPKGLQKTDLYHLQKSLLEMKELRRSKKQTKFEVLRENVVNFIDCLVREYLLPPETQPLHEVVYFSAAHALREHLNAAPRIALHTALNNPYYYLKNEALKSEEGCIPNIAPDICIAYKLHLECSRLINLVDWSEAFATVVTAAEKMDANSATSEEMNEIIHARFIRAVSELELLGFIKPTKQKTDHVARLTWGGC
Total (peptides) [1]: 2
Unique (peptides) [1]: 2
Total (peptides) [2]: 1
Unique (peptides) [2]: 1

B5: NOM1 (protein, UniProt Q5C9Z4 1-860, looked up)
Nucleolar MIF4G …: MAASRSAGEAGPGGSQGRVVRMKRRGGRGPRRGPAGGGEKALKRLKLAVEEFVHATSEGEAPGGCEGRGAPVSFRPGGRKSRKELRKEKRHLRKARRLQRTAGPEQGPGLGGRSGAEEASGHRQDTEERARPAPSRDPSPPRKPRPSRVKAKATAATAKTRPSAAATAAARKRALLAANEEEDREIRKLERCLGLNKRKKKDGSSSVPLSFARDGLDYILGALESGKNSGLYDSSGEEEEDAGQTLPESDLESDSQDESEEEEEGDVEKEKKAQEAEAQSEDDDEDTEEEQGEEKEKGAQEKRRGKRVRFAEDEEKSENSSEDGDITDKSLCGSGEKYIPPHVRQAEETVDFKKKEELERLKKHVKGLLNRLSEPNMASISGQLEELYMAHSRKDMNDTLTSALMGACVTASAMPSRLMMEHVLLVSILHHTVGIEVGAHFLEAVVRKFDAIYKYGSEGKECDNLFTVIAHLYNFHVVQSLLIFDILKKLIGTFTEKDIELILLMLKNVGFSLRKDDALSLKELITEAQTKASGAGSEFQDQTRIRFMLETMLALKNNDMRKIPGYDPEPVEKLRKLQRALVRNAGSGSETQLRVSWDSVLSAEQTGRWWIVGSAWSGAPMIDNSHHTHLQKQLVGTVSSKILELARKQRMNTDIRRNIFCTIMTSEDFLDAFEKLLKLGLKDQQEREIIHVLMDCCLQEKTYNPFYAFLASKFCEYERRFQMTFQFSIWDKFRDLENLPATNFSNLVHLVAHLLKTKSLSLSILKVVEFSELDKPRVRFLRKVLSILLMETEVEDLSLIFTRVSDNPKLGVLREGLKLFISHFLLKNAQAHRSADEANVLREKADLATKCLQGKASLRM
Total (peptides) [1]: 2
Unique (peptides) [1]: 2
Total (peptides) [2]: 1
Unique (peptides) [2]: 1

B6: ABCF2 (protein, UniProt Q9UG63 1-623, looked up)
ATP-binding cassette …: MPSDLAKKKAAKKKEAAKARQRPRKGHEENGDVVTEPQVAEKNEANGRETTEVDLLTKELEDFEMKKAAARAVTGVLASHPNSTDVHIINLSLTFHGQELLSDTKLELNSGRRYGLIGLNGIGKSMLLSAIGKREVPIPEHIDIYHLTREMPPSDKTPLHCVMEVDTERAMLEKEAERLAHEDAECEKLMELYERLEELDADKAEMRASRILHGLGFTPAMQRKKLKDFSGGWRMRVALARALFIRPFMLLLDEPTNHLDLDACVWLEEELKTFKRILVLVSHSQDFLNGVCTNIIHMHNKKLKYYTGNYDQYVKTRLELEENQMKRFHWEQDQIAHMKNYIARFGHGSAKLARQAQSKEKTLQKMMASGLTERVVSDKTLSFYFPPCGKIPPPVIMVQNVSFKYTKDGPCIYNNLEFGIDLDTRVALVGPNGAGKSTLLKLLTGELLPTDGMIRKHSHVKIGRYHQHLQEQLDLDLSPLEYMMKCYPEIKEKEEMRKIIGRYGLTGKQQVSPIRNLSDGQKCRVCLAWLAWQNPHMLFLDEPTNHLDIETIDALADAINEFEGGMMLVSHDFRLIQQVAQEIWVCEKQTITKWPGDILAYKEHLKSKLVDEEPQLTKRTHNV
Total (peptides) [1]: 2
Unique (peptides) [1]: 2

B7: MGAT2 (protein, UniProt Q10469 1-447, looked up)
Alpha-1,6-mannosyl-glycoprotei …: MRFRIYKRKVLILTLVVAACGFVLWSSNGRQRKNEALAPPLLDAEPARGAGGRGGDHPSVAVGIRRVSNVSAASLVPAVPQPEADNLTLRYRSLVYQLNFDQTLRNVDKAGTWAPRELVLVVQVHNRPEYLRLLLDSLRKAQGIDNVLVIFSHDFWSTEINQLIAGVNFCPVLQVFFPFSIQLYPNEFPGSDPRDCPRDLPKNAALKLGCINAEYPDSFGHYREAKFSQTKHHWWWKLHFVWERVKILRDYAGLILFLEEDHYLAPDFYHVFKKMWKLKQQECPECDVLSLGTYSASRSFYGMADKVDVKTWKSTEHNMGLALTRNAYQKLIECTDTFCTYDDYNWDWTLQYLTVSCLPKFWKVLVPQIPRIFHAGDCGMHHKKTCRPSTQSAQIESLLNNNKQYMFPETLTISEKFTVVAISPPRKNGGWGDIRDHELCKSYRRLQ
Total (peptides) [1]: 2
Unique (peptides) [1]: 2
Total (peptides) [2]: 2
Unique (peptides) [2]: 2

B8: ETFB (protein, UniProt P38117 2-255, looked up)
Electron transfer …: AELRVLVAVKRVIDYAVKIRVKPDRTGVVTDGVKHSMNPFCEIAVEEAVRLKEKKLVKEVIAVSCGPAQCQETIRTALAMGADRGIHVEVPPAEAERLGPLQVARVLAKLAEKEKVDLVLLGKQAIDDDCNQTGQMTAGFLDWPQGTFASQVTLEGDKLKVEREIDGGLETLRLKLPAVVTADLRLNEPRYATLPNIMKAKKKKIEVIKPGDLGVDLTSKLSVISVEDPPQRTAGVKVETTEDLVAKLKEIGRI
Total (peptides) [1]: 2
Unique (peptides) [1]: 2
Total (peptides) [2]: 2
Unique (peptides) [2]: 2

B9: ACSL3 (protein, UniProt O95573 1-720, looked up)
Fatty acid CoA ligase Acsl3: MNNHVSSKPSTMKLKHTINPILLYFIHFLISLYTILTYIPFYFFSESRQEKSNRIKAKPVNSKPDSAYRSVNSLDGLASVLYPGCDTLDKVFTYAKNKFKNKRLLGTREVLNEEDEVQPNGKIFKKVILGQYNWLSYEDVFVRAFNFGNGLQMLGQKPKTNIAIFCETRAEWMIAAQACFMYNFQLVTLYATLGGPAIVHALNETEVTNIITSKELLQTKLKDIVSLVPRLRHIITVDGKPPTWSEFPKGIIVHTMAAVEALGAKASMENQPHSKPLPSDIAVIMYTSGSTGLPKGVMISHSNIIAGITGMAERIPELGEEDVYIGYLPLAHVLELSAELVCLSHGCRIGYSSPQTLADQSSKIKKGSKGDTSMLKPTLMAAVPEIMDRIYKNVMNKVSEMSSFQRNLFILAYNYKMEQISKGRNTPLCDSFVFRKVRSLLGGNIRLLLCGGAPLSATTQRFMNICFCCPVGQGYGLTESAGAGTISEVWDYNTGRVGAPLVCCEIKLKNWEEGGYFNTDKPHPRGEILIGGQSVTMGYYKNEAKTKADFFEDENGQRWLCTGDIGEFEPDGCLKIIDRKKDLVKLQAGEYVSLGKVEAALKNLPLVDNICAYANSYHSYVIGFVVPNQKELTELARKKGLKGTWEELCNSCEMENEVLKVLSEAAISASLEKFEIPVKIRLSPEPWTPETGLVTDAFKLKRKELKTHYQADIERMYGRK
Total (peptides) [1]: 2
Unique (peptides) [1]: 2
Total (peptides) [2]: 2
Unique (peptides) [2]: 2

From patent US20250283871A1, “COMPOSITIONS AND METHODS FOR MODULATING THE INTERACTION BETWEEN SS18-SSX FUSION ONCOPROTEIN AND NUCLEOSOMES” (Dana-Farber Cancer Institute, Inc., priority 2020, published 2025)
